Data as given in publication PMC4964526.
Results are given in words; binding and its absence hold for the method and conditions named. Binding seen in cells or lysates may run through a third protein. Binding calls can cover weak binding; strength is not graded here. Tags and fused reporters may be left off the sequences shown.

Experiments:
Experiment in all cases: split reporter; split YFP; OsCYP19-4 isoforms in pSPYNE-35S, AtRCN1 in pSPYCE-35S; co-expressed with P19 in N. benthamiana leaves by agroinfiltration; YFP fluorescence 48 h post-infiltration, confocal microscopy
[1] = target: OsCYP19-4.1 split-YFP fusion (4.1-NE) for BiFC (Oryza sativa)
[2] = target: OsCYP19-4.2 split-YFP fusion (4.2-NE) for BiFC (Oryza sativa)
[3] = target: OsCYP19-4.3 split-YFP fusion (4.3-NE) for BiFC (Oryza sativa)

Measured: binding

B1: AtRCN1 split-YFP fusion (AtRCN1-CE) for BiFC (protein, UniProt Q38845 1-588)
chain: MAMVDEPLYPIAVLIDELKNDDIQLRLNSIRRLSTIARALGEERTRKELIPFLSENSDDDDEVLLAMAEELGVFIPFVGGIEFAHVLLPPLESLCTVEETCVREKAVESLCKIGSQMKENDLVESFVPLVKRLAGGEWFAARVSACGIFHVAYQGCTDVLKTELRATYSQLCKDDMPMVRRAAASNLGKFATTVESTFLIAEIMTMFDDLTKDDQDSVRLLAVEGCAALGKLLEPQDCVARILPVIVNFSQDKSWRVRYMVANQLYELCEAVGPDCTRTDLVPAYVRLLRDNEAEVRIAAAGKVTKFCRLLNPELAIQHILPCVKELSSDSSQHVRSALASVIMGMAPILGKDSTIEHLLPIFLSLLKDEFPDVRLNIISKLDQVNQVIGIDLLSQSLLPAIVELAEDRHWRVRLAIIEYVPLLASQLGIGFFDDKLGALCMQWLQDKVYSIREAAANNLKRLAEEFGPEWAMQHLVPQVLDMVNNPHYLHRMMVLRAISLMAPVMGSEITCSKFLPVVVEASKDRVPNIKFNVAKLLQSLIPIVDQSVVDKTIRQCLVDLSEDPDVDVRYFANQALNSIDGSTAAQS
binds: all assays above
